{"source": "paper PMC3579733", "molecules": {"B1": {"name": "HtrVIII (receptor, UniProt B0R5T0 1-643)", "chain": "MGESARGGGSAETTGGLAAAVKTYLEYTPTGESIPAAAWRRRHRNVRVFVLAHIPLLLALGLYEGTESAVTGATIPPTPGILIAAELGIVGALVGLASIPSVSRRGRTALASTAVLASSVVLVQFSGGFIEAHFHFFVGMAVIAVYEDWLPFALGLVYVVFTHGVFGMINAERVYNHTAAINNPWVWGGIHGAFVLLLAGALMANWYSTERSREASQKRLEEARQKAQQVEDLEARQAEIEAEKAEAKRLKADAEEAREAAEAQQREVAALNERLEATANTYGAAMARAADGDLSVRLDPDVENDAMAAIAASFNEMLDETETTIREIQAVASDVAAASEDADAGVVEIEDASGQVSETVQEIAAGADEQREKLETVSGEMTDLSAAIEEVAASADSVAERSHETAAVAGDGEQTAEQAIADSRTVQSAVESTVQNVEALDDQLAEISEIVDLISDVAEQTNMLALNANIEAARADKSGDGFAVVADEVKDLAEETRASAGDIEALVADIDAQMQATVTEARTADESVQDAISAVDAVVDAFGTVAENAEETDTGVQEISTTTDDQAASTEEAVSMIAEVSDISTATAADAQQASTAAEQQTTAAATISENTAALREQADRLQGLVSTFDVHDESASTAARSE"}, "B2": {"name": "Car (receptor, UniProt B0R9Z1 1-452)", "chain": "MDPASSDMGGEATGEHLADELCEAYLGDNEDDGGDELQRLSRERDFWKHMFNQLVAEYPEGILITAADGTVTHWNERFSDHMKMARSDALGEDASDVFSTAEESETLPEAVVRTGDTVEEEEPHDVPTDSLCQYHGVPLRAPTGDVVGSFGVVPDISEKVKNQRELHDLHETVSSNVGEHLSELSESIDEVGSFAEETEAFAGEEIERMEGVADEVSNQSATIEEIASSAEEVSQASQRAQDRATEGEQTAETAIDRMGAVQESAERVNDTIDGLTSQADEMSEIIDAINDIADQTNMLALNASIEAARAGEKGEGFAVVADEVKSLAEESQERADEIEQMIVEMVETTDQTADRIGQTTTEIEEAITAVRETLDSLQEIRKAVDETATGVKEVAGATDDHAASTEQVAATTDEAVDKLTELEDRLDNLSQIASEQHDRVAEIEDMVDELVE"}, "B3": {"name": "Htr13 (receptor, UniProt B0R4N9 1-423)", "chain": "MTGPDNSLTDPSASPSTPVASLRPTAEQLLPQQRDQLHAFIERVLADHPDHIVDCCVEYYTNTLPNGTAAYGDLLALLAATSADADAFTAAVTAIQSPLLSGDGPTDGPPAQESVTAHARVVAEDMSALRGRVAADDATATGSEATADEAAAVAELIERAREMNQNMEEIDRLAAQQSDNTDNLKAEISDISSAIEQIAASATEVNDRSDEAQSLATDGYERAVAVVEQVEAIHDGVTEVRHQTATLQDHTEAIDDIVEVINDIADQTNLLALNASIEAARADAGGEGFAVVADEVKSLAEESKTQAEEIEERVENIQVETRNAADTLVELETETEDSLEASTSSLDTFEEIKDLVTGVSTSLDEIKSGTERQTESSEELTMMIDEAARKADTISDEVASMADANHAQLQKLEAYQSESDQSR"}, "B4": {"name": "HtrII (receptor, UniProt B0R6B1 1-764)", "chain": "MGSGLVARIRGSYGTKLTLALVVVVVLSVGVGTFVYQQTTTQLETDVRADLTGSADARADHLDAWLSNARGQTQLASRHPVLASGNDTAITRYLEGLAASDERPDGVVAAHVYNTSTTTIEASSADAFTGVNPREQGAPFATDPPSFATTSDVVVAAPFTVPAADFPVLSVLSPIPGTTDKALIYMVNVNTLTDDFGQNVAGSTTTVVSADGTYVSHPDQDRVLTGHDGPSRLLNQSRTQPAYIDANGTVTAAAPVDGAPWSVLVRAPHDRAFALGDFVASSLVGLVLITIVSLSLIGVTVGSTTVTALRQFSRRADEMAAGDLDTDIDTSRNDEFGTLAESFRSMRDSLSESLTDAERATARAEDAREDAEQQRADAEAAREDAEAARKDAQETARALESAAADYEEALTAVADGDLTRRVDASRDHDAMARIGHALNDMLDDIETSVAAATAFSDHVSDAAQRVEADAGDAIDAGTDVSTAVDEISDGATEQTDRLHEVAGEVDDLSASAEEVAETVASLADTAGQAASAVDDGRQATEDAVETMDDVADDAEAAADAMDALDSEMADIGEIVDVIADIADQTNMLALNASIEAARTGADGDGFAVVADEVKTLAEESRDAAEDIESRLLALQGQVSDVADEMRATSDTVSDGRATVGDAATALDDVVSFVADTDTAAGEIRAATDRQAHAASRVASAVDEVAGISQETAAQATAVADSAATQTDTLSSVDDAAADLADRAAALDDLLAEFDAHDDTEPEDY"}}, "key": {"[1]": {"target": "T1, CheW2 (Halobacterium salinarum R1 (DSM 671)) (UniProt Q9HQY8)", "T1 sequence": "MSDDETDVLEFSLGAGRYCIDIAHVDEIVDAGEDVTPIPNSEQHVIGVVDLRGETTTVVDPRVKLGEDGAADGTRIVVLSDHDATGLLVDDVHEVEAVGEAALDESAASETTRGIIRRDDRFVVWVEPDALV", "experiment": "affinity purification with mass spectrometry; comparative two-step bait fishing: CheW1 on one cellulose column with light (12C) lysate, CheW2 on a second column with heavy (13C) lysate, the second CheW as control instead of plain CBD; only the target purified"}, "[2]": {"target": "T2, CheY (Halobacterium salinarum R1 (DSM 671)) (UniProt B0R4K1)", "T2 sequence": "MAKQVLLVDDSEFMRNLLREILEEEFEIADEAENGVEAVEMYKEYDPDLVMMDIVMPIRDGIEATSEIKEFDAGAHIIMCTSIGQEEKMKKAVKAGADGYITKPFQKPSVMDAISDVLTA", "experiment": "affinity purification with mass spectrometry; one-step and two-step bait fishing taken together (final data set; both methods applied to all baits); the place does not tell which of the two gave the result"}, "[3]": {"target": "T3, CheA (Halobacterium salinarum R1 (DSM 671)) (UniProt B0R4J9)", "T3 sequence": "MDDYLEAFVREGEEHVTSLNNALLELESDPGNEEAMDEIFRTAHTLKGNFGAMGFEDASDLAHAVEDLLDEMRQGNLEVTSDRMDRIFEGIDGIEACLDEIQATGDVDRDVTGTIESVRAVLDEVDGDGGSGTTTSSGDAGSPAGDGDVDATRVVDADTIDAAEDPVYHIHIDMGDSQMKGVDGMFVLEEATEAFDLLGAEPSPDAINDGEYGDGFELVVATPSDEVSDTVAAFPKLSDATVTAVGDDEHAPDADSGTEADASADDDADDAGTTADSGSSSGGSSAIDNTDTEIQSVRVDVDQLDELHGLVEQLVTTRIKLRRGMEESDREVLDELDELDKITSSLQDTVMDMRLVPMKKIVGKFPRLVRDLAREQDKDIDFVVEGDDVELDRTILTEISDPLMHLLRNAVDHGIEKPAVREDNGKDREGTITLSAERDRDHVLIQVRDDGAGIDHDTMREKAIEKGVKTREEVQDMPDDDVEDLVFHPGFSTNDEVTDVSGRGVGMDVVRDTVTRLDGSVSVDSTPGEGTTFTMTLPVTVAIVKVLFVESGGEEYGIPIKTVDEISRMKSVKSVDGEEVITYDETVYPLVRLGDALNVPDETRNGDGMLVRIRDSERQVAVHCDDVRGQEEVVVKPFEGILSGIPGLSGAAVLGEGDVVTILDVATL", "experiment": "affinity purification with mass spectrometry; one-step and two-step bait fishing taken together (final data set; both methods applied to all baits); the place does not tell which of the two gave the result"}, "[4]": {"target": "T4, CheW1 (Halobacterium salinarum R1 (DSM 671)) (UniProt Q9HQW5)", "T4 sequence": "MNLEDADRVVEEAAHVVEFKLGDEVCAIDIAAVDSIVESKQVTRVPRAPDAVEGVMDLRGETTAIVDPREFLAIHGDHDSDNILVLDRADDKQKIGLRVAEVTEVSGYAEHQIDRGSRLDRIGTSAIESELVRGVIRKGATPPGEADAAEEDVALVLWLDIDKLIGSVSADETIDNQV", "experiment": "affinity purification with mass spectrometry; one-step and two-step bait fishing taken together (final data set; both methods applied to all baits); the place does not tell which of the two gave the result"}, "[5]": {"target": "T1, CheW2 (Halobacterium salinarum R1 (DSM 671))", "experiment": "affinity purification with mass spectrometry; two-step bait fishing: bait-CBD bound to a cellulose column and stringently washed (CFE + 1% NP40 + 20% ethylene glycol), then incubated with lysate of wild type cells (12C6-leucine); plain CBD column with 13C6-leucine lysate as control; SILAC, association score > 7 counts as interaction; only the target purified"}, "[6]": {"target": "T1, CheW2 (Halobacterium salinarum R1 (DSM 671))", "experiment": "affinity purification with mass spectrometry; one-step and two-step bait fishing taken together (final data set; both methods applied to all baits); the place does not tell which of the two gave the result"}, "[7]": {"target": "T3, CheA (Halobacterium salinarum R1 (DSM 671))", "experiment": "affinity purification with mass spectrometry; one-step bait fishing: lysates of the bait-CBD strain (13C6-leucine) and of the bait-control strain without CBD (12C6-leucine) mixed, one cellulose column, CFE buffer (3 M KCl, 1 M NaCl, 400 mM NH4Cl, 40 mM MgCl2, 10 mM Tris/HCl pH 7.5), washes with 0.5% NP40, room temperature; SILAC, association score > 7 counts as interaction"}, "[8]": {"target": "T4, CheW1 (Halobacterium salinarum R1 (DSM 671))", "experiment": "affinity purification with mass spectrometry; comparative two-step bait fishing: CheW1 on one cellulose column with light (12C) lysate, CheW2 on a second column with heavy (13C) lysate, the second CheW as control instead of plain CBD; only the target purified"}, "[9]": {"target": "OE4643R (Halobacterium salinarum R1 (DSM 671))", "experiment": "affinity purification with mass spectrometry; one-step and two-step bait fishing taken together (final data set; both methods applied to all baits); the place does not tell which of the two gave the result"}, "[10]": {"target": "CheD (Halobacterium salinarum R1 (DSM 671))", "experiment": "affinity purification with mass spectrometry; one-step and two-step bait fishing taken together (final data set; both methods applied to all baits); the place does not tell which of the two gave the result"}}, "note": "No constants are given. Whether binding was seen depends on the method and setting. In cells and extracts the contact can be indirect. Here binding means that the protein was enriched with, or labelled near, the bait; the list need not be complete. For some of these results: A no says only that the protein was not detected with the bait."}
{"molecule": "Htr15 (receptor)", "values": [{"measurement": "binding", "setting": "[1]", "value": "binds"}, {"measurement": "binding", "setting": "[2]", "value": "binds"}, {"measurement": "binding", "setting": "[3]", "value": "no binding"}, {"measurement": "binding", "setting": "[4]", "value": "binds"}, {"measurement": "binding", "setting": "[5]", "value": "binds"}]}
{"molecule": "Htr16 (receptor)", "values": [{"measurement": "binding", "setting": "[2]", "value": "binds"}, {"measurement": "binding", "setting": "[4]", "value": "no binding"}, {"measurement": "binding", "setting": "[6]", "value": "no binding"}, {"measurement": "binding", "setting": "[7]", "value": "binds"}]}
{"molecule": "Htr17 (receptor)", "values": [{"measurement": "binding", "setting": "[2]", "value": "binds"}, {"measurement": "binding", "setting": "[4]", "value": "no binding"}, {"measurement": "binding", "setting": "[6]", "value": "no binding"}, {"measurement": "binding", "setting": "[7]", "value": "binds"}]}
{"molecule": "B1", "values": [{"measurement": "binding", "setting": "[8]", "value": "binds"}, {"measurement": "binding", "setting": "[1]", "value": "binds"}, {"measurement": "binding", "setting": "[2]", "value": "binds"}, {"measurement": "binding", "setting": "[4]", "value": "binds"}, {"measurement": "binding", "setting": "[9]", "value": "no binding"}, {"measurement": "binding", "setting": "[10]", "value": "no binding"}, {"measurement": "binding", "setting": "[7]", "value": "binds"}, {"measurement": "binding", "setting": "[5]", "value": "binds"}]}
{"molecule": "B2", "values": [{"measurement": "binding", "setting": "[1]", "value": "binds"}, {"measurement": "binding", "setting": "[2]", "value": "no binding"}, {"measurement": "binding", "setting": "[3]", "value": "no binding"}, {"measurement": "binding", "setting": "[4]", "value": "no binding"}, {"measurement": "binding", "setting": "[9]", "value": "no binding"}, {"measurement": "binding", "setting": "[10]", "value": "no binding"}, {"measurement": "binding", "setting": "[5]", "value": "binds"}]}
{"molecule": "B3", "values": [{"measurement": "binding", "setting": "[1]", "value": "binds"}, {"measurement": "binding", "setting": "[2]", "value": "no binding"}, {"measurement": "binding", "setting": "[3]", "value": "no binding"}, {"measurement": "binding", "setting": "[4]", "value": "binds"}, {"measurement": "binding", "setting": "[9]", "value": "no binding"}, {"measurement": "binding", "setting": "[10]", "value": "no binding"}, {"measurement": "binding", "setting": "[5]", "value": "binds"}]}
{"molecule": "B4", "values": [{"measurement": "binding", "setting": "[8]", "value": "binds"}, {"measurement": "binding", "setting": "[1]", "value": "binds"}, {"measurement": "binding", "setting": "[2]", "value": "binds"}, {"measurement": "binding", "setting": "[4]", "value": "binds"}, {"measurement": "binding", "setting": "[9]", "value": "no binding"}, {"measurement": "binding", "setting": "[10]", "value": "no binding"}, {"measurement": "binding", "setting": "[7]", "value": "binds"}, {"measurement": "binding", "setting": "[5]", "value": "binds"}]}
